This is one part of the list.
Legend:
Experiment in all cases: glycan array binding signal (z-score within array); higher = stronger binding
Settings in all cases: glycan notation: IUPAC condensed, linker removed
[1] = target: GlcNAc(a1-4)Gal(b1-3)GlcNAc
In short: (§1)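 Glycan array binding is given as a within-array Z-score, which can be read as non-binding when negative. The arrays, 3228 of them, came from the Consortium for Functional Glycomics database and were retained only where the protein sequence was available. Z-scores were averaged across arrays of the same protein sequence at different concentrations or buffers and across linkers.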

[2] = target: GlcNAc(a1-4)Gal(b1-4)GalNAc
In short: as §1

[3] = target: GlcNAc(a1-4)Gal(b1-4)GlcNAc
In short: as §1

[4] = target: GlcNAc(a1-4)Gal(b1-4)GlcNAc(b1-3)Gal(b1-4)Glc
In short: as §1

[5] = target: GlcNAc(a1-4)Gal(b1-4)GlcNAc(b1-3)Gal(b1-4)GlcNAc
In short: as §1

[6] = target: GlcNAc(a1-4)Gal(b1-4)GlcNAc(b1-3)Gal(b1-4)GlcNAc(b1-3)Gal(b1-4)GlcNAc
In short: as §1

[7] = target: GlcNAc(a1-4)Gal(b1-4)GlcNAc(b1-3)Gal(b1-4)[Fuc(a1-3)]GlcNAc(b1-3)Gal(b1-4)[Fuc(a1-3)]GlcNAc
In short: as §1

[8] = target: GlcNAc(a1-6)Gal(b1-4)GlcNAc
In short: as §1

[9] = target: GlcNAc(b1-2)Gal(b1-3)GalNAc
In short: as §1

[10] = target: GlcNAc(b1-2)Man(a1-3)[GlcNAc(b1-2)Man(a1-6)]Man(b1-4)GlcNAc(b1-4)GlcNAc
In short: as §1

[11] = target: GlcNAc(b1-2)Man(a1-3)[GlcNAc(b1-2)Man(a1-6)]Man(b1-4)GlcNAc(b1-4)[Fuc(a1-6)]GlcNAc
In short: as §1

[12] = target: GlcNAc(b1-2)Man(a1-3)[GlcNAc(b1-4)][GlcNAc(b1-2)Man(a1-6)]Man(b1-4)GlcNAc(b1-4)GlcNAc
In short: as §1

[13] = target: GlcNAc(b1-2)Man(a1-3)[GlcNAc(b1-4)][GlcNAc(b1-2)Man(a1-6)]Man(b1-4)GlcNAc(b1-4)[Fuc(a1-6)]GlcNAc
In short: as §1

[14] = target: GlcNAc(b1-2)[GlcNAc(b1-4)]Man(a1-3)[GlcNAc(b1-2)Man(a1-6)]Man(b1-4)GlcNAc(b1-4)GlcNAc
In short: as §1

[15] = target: GlcNAc(b1-2)[GlcNAc(b1-4)]Man(a1-3)[GlcNAc(b1-4)][GlcNAc(b1-2)Man(a1-6)]Man(b1-4)GlcNAc(b1-4)GlcNAc
In short: as §1

[16] = target: GlcNAc(b1-2)[GlcNAc(b1-4)]Man(a1-3)[GlcNAc(b1-4)][GlcNAc(b1-2)[GlcNAc(b1-6)]Man(a1-6)]Man(b1-4)GlcNAc(b1-4)GlcNAc
In short: as §1

[17] = target: GlcNAc(b1-2)[GlcNAc(b1-4)]Man(a1-3)[GlcNAc(b1-4)][GlcNAc(b1-2)[GlcNAc(b1-6)]Man(a1-6)]Man(b1-4)GlcNAc(b1-4)[Fuc(a1-6)]GlcNAc
In short: as §1

[18] = target: GlcNAc(b1-2)[GlcNAc(b1-6)]Man(a1-6)[GlcNAc(b1-2)Man(a1-3)]Man(b1-4)GlcNAc(b1-4)GlcNAc
In short: as §1

[19] = target: GlcNAc(b1-2)[GlcNAc(b1-6)]Man(a1-6)[GlcNAc(b1-2)Man(a1-3)]Man(b1-4)GlcNAc(b1-4)[Fuc(a1-6)]GlcNAc
In short: as §1

[20] = target: GlcNAc(b1-2)[GlcNAc(b1-6)]Man(a1-6)[GlcNAc(b1-4)][GlcNAc(b1-2)Man(a1-3)]Man(b1-4)GlcNAc(b1-4)GlcNAc
In short: as §1

GlcNAc(b1-3)Fuc = target: GlcNAc(b1-3)Fuc
In short: as §1

GlcNAc(b1-3)Gal = target: GlcNAc(b1-3)Gal
In short: as §1

[21] = target: GlcNAc(b1-3)Gal(b1-3)GalNAc
In short: as §1

GlcNAc(b1-3)Gal(b1-4)Glc = target: GlcNAc(b1-3)Gal(b1-4)Glc
In short: as §1

[22] = target: GlcNAc(b1-3)Gal(b1-4)GlcNAc
In short: as §1

[23] = target: GlcNAc(b1-3)Gal(b1-4)GlcNAc(b1-2)Man(a1-3)[GlcNAc(b1-3)Gal(b1-4)GlcNAc(b1-2)Man(a1-6)]Man(b1-4)GlcNAc(b1-4)GlcNAc
In short: as §1

[24] = target: GlcNAc(b1-3)Gal(b1-4)GlcNAc(b1-2)Man(a1-3)[GlcNAc(b1-3)Gal(b1-4)GlcNAc(b1-2)Man(a1-6)]Man(b1-4)GlcNAc(b1-4)[Fuc(a1-6)]GlcNAc
In short: as §1

[25] = target: GlcNAc(b1-3)Gal(b1-4)GlcNAc(b1-2)[GlcNAc(b1-3)Gal(b1-4)GlcNAc(b1-6)]Man(a1-6)[GlcNAc(b1-3)Gal(b1-4)GlcNAc(b1-2)Man(a1-3)]Man(b1-4)GlcNAc(b1-4)GlcNAc
In short: as §1

[26] = target: GlcNAc(b1-3)Gal(b1-4)GlcNAc(b1-3)Gal(b1-4)GlcNAc
In short: as §1

[27] = target: GlcNAc(b1-3)Gal(b1-4)GlcNAc(b1-3)Gal(b1-4)GlcNAc(b1-2)Man(a1-3)[GlcNAc(b1-3)Gal(b1-4)GlcNAc(b1-3)Gal(b1-4)GlcNAc(b1-2)Man(a1-6)]Man(b1-4)GlcNAc(b1-4)GlcNAc
In short: as §1

[28] = target: GlcNAc(b1-3)Gal(b1-4)GlcNAc(b1-3)Gal(b1-4)GlcNAc(b1-2)Man(a1-3)[GlcNAc(b1-3)Gal(b1-4)GlcNAc(b1-3)Gal(b1-4)GlcNAc(b1-2)Man(a1-6)]Man(b1-4)GlcNAc(b1-4)[Fuc(a1-6)]GlcNAc
In short: as §1

[29] = target: GlcNAc(b1-3)Gal(b1-4)GlcNAc(b1-3)Gal(b1-4)GlcNAc(b1-2)[GlcNAc(b1-3)Gal(b1-4)GlcNAc(b1-3)Gal(b1-4)GlcNAc(b1-6)]Man(a1-6)[GlcNAc(b1-3)Gal(b1-4)GlcNAc(b1-3)Gal(b1-4)GlcNAc(b1-2)Man(a1-3)]Man(b1-4)GlcNAc(b1-4)[Fuc(a1-6)]GlcNAc
In short: as §1

[30] = target: GlcNAc(b1-3)Gal(b1-4)GlcNAc(b1-3)Gal(b1-4)GlcNAc(b1-3)Gal(b1-4)GlcNAc(b1-2)Man(a1-3)[GlcNAc(b1-3)Gal(b1-4)GlcNAc(b1-3)Gal(b1-4)GlcNAc(b1-3)Gal(b1-4)GlcNAc(b1-2)Man(a1-6)]Man(b1-4)GlcNAc(b1-4)GlcNAc
In short: as §1

[31] = target: GlcNAc(b1-3)Gal(b1-4)GlcNAc(b1-3)Gal(b1-4)GlcNAc(b1-3)Gal(b1-4)GlcNAc(b1-2)Man(a1-3)[GlcNAc(b1-3)Gal(b1-4)GlcNAc(b1-3)Gal(b1-4)GlcNAc(b1-3)Gal(b1-4)GlcNAc(b1-2)Man(a1-6)]Man(b1-4)GlcNAc(b1-4)[Fuc(a1-6)]GlcNAc
In short: as §1

[32] = target: GlcNAc(b1-3)Gal(b1-4)GlcNAc(b1-3)Gal(b1-4)GlcNAc(b1-3)Gal(b1-4)GlcNAc(b1-2)[GlcNAc(b1-3)Gal(b1-4)GlcNAc(b1-3)Gal(b1-4)GlcNAc(b1-3)Gal(b1-4)GlcNAc(b1-6)]Man(a1-6)[GlcNAc(b1-3)Gal(b1-4)GlcNAc(b1-3)Gal(b1-4)GlcNAc(b1-3)Gal(b1-4)GlcNAc(b1-2)Man(a1-3)]Man(b1-4)GlcNAc(b1-4)[Fuc(a1-6)]GlcNAc
In short: as §1

[33] = target: GlcNAc(b1-3)Gal(b1-4)GlcNAc(b1-3)Gal(b1-4)GlcNAc(b1-3)Gal(b1-4)GlcNAc(b1-3)Gal(b1-4)GlcNAc(b1-2)Man(a1-3)[GlcNAc(b1-3)Gal(b1-4)GlcNAc(b1-3)Gal(b1-4)GlcNAc(b1-3)Gal(b1-4)GlcNAc(b1-3)Gal(b1-4)GlcNAc(b1-2)Man(a1-6)]Man(b1-4)GlcNAc(b1-4)GlcNAc
In short: as §1

[34] = target: GlcNAc(b1-3)Gal(b1-4)GlcNAc(b1-3)Gal(b1-4)GlcNAc(b1-3)Gal(b1-4)GlcNAc(b1-3)Gal(b1-4)GlcNAc(b1-2)Man(a1-3)[GlcNAc(b1-3)Gal(b1-4)GlcNAc(b1-3)Gal(b1-4)GlcNAc(b1-3)Gal(b1-4)GlcNAc(b1-3)Gal(b1-4)GlcNAc(b1-2)Man(a1-6)]Man(b1-4)GlcNAc(b1-4)[Fuc(a1-6)]GlcNAc
In short: as §1

[35] = target: GlcNAc(b1-3)Gal(b1-4)GlcNAc(b1-3)Gal(b1-4)GlcNAc(b1-3)Gal(b1-4)GlcNAc(b1-3)Gal(b1-4)GlcNAc(b1-2)[GlcNAc(b1-3)Gal(b1-4)GlcNAc(b1-3)Gal(b1-4)GlcNAc(b1-3)Gal(b1-4)GlcNAc(b1-3)Gal(b1-4)GlcNAc(b1-6)]Man(a1-6)[GlcNAc(b1-3)Gal(b1-4)GlcNAc(b1-3)Gal(b1-4)GlcNAc(b1-3)Gal(b1-4)GlcNAc(b1-3)Gal(b1-4)GlcNAc(b1-2)Man(a1-3)]Man(b1-4)GlcNAc(b1-4)[Fuc(a1-6)]GlcNAc
In short: as §1

B1: TAL6-4LysM (Trichoderma atroviride) (protein)
chain: AADSIPSISPTGIITPTPTQSGMVSNCNKFYDVHSNDGCSAIASSQHVDLSSLYKWNPAIKTDCSGLQASVYVCIGILTTSMSTTSKLPTTTSKPSTTSKPPTGITTPTPTQSGMVKNCNKFYDVHSGDGCSAIASSQKVNLSSFYLWNPAVKTDCSGLQASVFVCIGTLTTSMSTTTSKLPTTTSKPSTTSKPPTGIITPTPTQNGMVKNCNKFYDVHSGDGCSAIASSQKVNLSSFYLWNPAVKTDCSGLQASVFVCVGTATTTTAAGITTPTPTQSGMVSGCNKFYDVHAGDGCSAIASSQKIALSSLYKWNPAVKTDCSGLQASVYICIGVGNAAAARVTGALEQKLISEEDLNSAVDHHHHHH
- glycan array binding signal (z-score) [1]: -0.119
- glycan array binding signal (z-score) [2]: -0.21
- glycan array binding signal (z-score) [3]: 0.134
- glycan array binding signal (z-score) [4]: -0.137
- glycan array binding signal (z-score) [5]: 0.336
- glycan array binding signal (z-score) [6]: -0.674
- glycan array binding signal (z-score) [7]: 0.09
- glycan array binding signal (z-score) [8]: -1.04
- glycan array binding signal (z-score) [9]: 0.737
- glycan array binding signal (z-score) [10]: 2.79
- glycan array binding signal (z-score) [11]: 0.725
- glycan array binding signal (z-score) [12]: 0.425
- glycan array binding signal (z-score) [13]: -0.146
- glycan array binding signal (z-score) [14]: 0.841
- glycan array binding signal (z-score) [15]: -0.902
- glycan array binding signal (z-score) [16]: -1.07
- glycan array binding signal (z-score) [17]: -0.55
- glycan array binding signal (z-score) [18]: 0.371
- glycan array binding signal (z-score) [19]: -1.51
- glycan array binding signal (z-score) [20]: -0.448
- glycan array binding signal (z-score) (GlcNAc(b1-3)Fuc): 0.388
- glycan array binding signal (z-score) (GlcNAc(b1-3)Gal): -0.061
- glycan array binding signal (z-score) [21]: 0.173
- glycan array binding signal (z-score) (GlcNAc(b1-3)Gal(b1-4)Glc): -1.08
- glycan array binding signal (z-score) [22]: -0.603
- glycan array binding signal (z-score) [23]: -0.267
- glycan array binding signal (z-score) [24]: -0.051
- glycan array binding signal (z-score) [25]: 0.403
- glycan array binding signal (z-score) [26]: -0.524
- glycan array binding signal (z-score) [27]: 0.029
- glycan array binding signal (z-score) [28]: -0.718
- glycan array binding signal (z-score) [29]: -0.523
- glycan array binding signal (z-score) [30]: 0.115
- glycan array binding signal (z-score) [31]: -0.156
- glycan array binding signal (z-score) [32]: -0.597
- glycan array binding signal (z-score) [33]: 1.45
- glycan array binding signal (z-score) [34]: -0.015
- glycan array binding signal (z-score) [35]: -0.451
